For at least one compound, name, drawing or mass did not settle the structure.
Test system: HEL SAMHD1 wt
Assay: Cell viability, Ara-C with or without 3-DU, SAMHD1 wt over-expression
Assay type: cell-based, human
Conditions: THP-1 (−/−) vs (+/+), AML panel and HEL versus HEL SAMHD1 wt cells

`Nc1nc(F)nc2c1ncn2[C@@H]1O[C@H](CO)[C@@H](O)[C@@H]1O` [fludarabine] was tested, and the “dependence of anti-leukemic activity on expression levels of SAMHD1” value was “depends on expression levels of SAMHD1 albeit to a lesser extent than for cytarabine”.

Source: patent US20180313843A1, “SAMHD1 MODULATION FOR TREATING RESISTANCE TO CANCER THERAPY” (priority 2015, published 2018)
